PubChem BioAssay AID652272 | Drosophila RNAi Screening Center | 2013
The deposit covers about 21,000 reagents; below is an unselected part of those with a known target gene and a result. In the full data, 503 (2.4%) got an active call. 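Raw plate light values, not normalised; calls rest on replicate z-scores that were not deposited; hits include reporter decreases as well as increases.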 Names joined by + are all predicted targets of the reagent. The record does not give: the amount of reagent, the time to read-out.

Test: 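Genome-wide knock-down search for components of Hedgehog signalling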 (primary screen)
Cell system: Drosophila clone 8 (Cl8) cells
Reagents: long dsRNA against Drosophila genes
Measurement: 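Plate reader light from a firefly reporter under a ptc promoter fragment that responds to Hedgehog, with Renilla light as transfection reference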
Direction: firefly Hh reporter signal: higher = more ptc reporter light; Renilla reference signal: higher = more Renilla control light
Active means: 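Called a hit if the two-replicate mean z-score lies below -2 or above +3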
Meaning of the calls: active = hit: reporter lowered or raised; inactive = not a hit

Against SA2 [DRSC08385], the entry reads firefly Hh reporter signal, replicate 1 = 71527; firefly Hh reporter signal, replicate 2 = 44668; Renilla reference signal, replicate 1 = 2080; Renilla reference signal, replicate 2 = 3003; inactive.
Vm26Ac [DRSC02329] scored firefly Hh reporter signal, replicate 1 = 1.53e5; firefly Hh reporter signal, replicate 2 = 62440; Renilla reference signal, replicate 1 = 3872; Renilla reference signal, replicate 2 = 6635; inactive.
Depletion of yellow-c + CIAPIN1 [DRSC01898] gave: firefly Hh reporter signal, replicate 1 = 74704; firefly Hh reporter signal, replicate 2 = 65677; Renilla reference signal, replicate 1 = 2234; Renilla reference signal, replicate 2 = 5783; inactive.
With knock-down of ND-18 [DRSC19441] the results were firefly Hh reporter signal, replicate 1 = 1.06e5; firefly Hh reporter signal, replicate 2 = 1.83e5; Renilla reference signal, replicate 1 = 4054; Renilla reference signal, replicate 2 = 7322; inactive.
With knock-down of Ir60a [DRSC04212], the screen gave firefly Hh reporter signal, replicate 1 = 76720; firefly Hh reporter signal, replicate 2 = 56816; Renilla reference signal, replicate 1 = 1882; Renilla reference signal, replicate 2 = 5047; inactive.
CG42382 [DRSC07671] showed firefly Hh reporter signal, replicate 1 = 97429; firefly Hh reporter signal, replicate 2 = 53984; Renilla reference signal, replicate 1 = 2144; Renilla reference signal, replicate 2 = 4608; inactive.
With knock-down of croc [DRSC11884], the screen gave firefly Hh reporter signal, replicate 1 = 1.41e5; firefly Hh reporter signal, replicate 2 = 1.38e5; Renilla reference signal, replicate 1 = 4632; Renilla reference signal, replicate 2 = 3658; inactive.
For CG8578 [DRSC20114], the values are firefly Hh reporter signal, replicate 1 = 1.01e5; firefly Hh reporter signal, replicate 2 = 90853; Renilla reference signal, replicate 1 = 2681; Renilla reference signal, replicate 2 = 2001; inactive.
CG7208 [DRSC16212] showed firefly Hh reporter signal, replicate 1 = 6.75e5; firefly Hh reporter signal, replicate 2 = 82185; Renilla reference signal, replicate 1 = 32962; Renilla reference signal, replicate 2 = 2134; inactive.
Silencing of l(3)L1231 [DRSC16323] came out at: firefly Hh reporter signal, replicate 1 = 98760; firefly Hh reporter signal, replicate 2 = 71146; Renilla reference signal, replicate 1 = 4307; Renilla reference signal, replicate 2 = 3190; inactive.
With knock-down of CG34012 [DRSC09089], the record shows firefly Hh reporter signal, replicate 1 = 94400; firefly Hh reporter signal, replicate 2 = 1.26e5; Renilla reference signal, replicate 1 = 3654; Renilla reference signal, replicate 2 = 8381; active.
Against Mov10 [DRSC07012] the deposit lists firefly Hh reporter signal, replicate 1 = 1.04e5; firefly Hh reporter signal, replicate 2 = 76875; Renilla reference signal, replicate 1 = 4576; Renilla reference signal, replicate 2 = 3280; inactive.
After knock-down of stl [DRSC04396], the record shows firefly Hh reporter signal, replicate 1 = 80413; firefly Hh reporter signal, replicate 2 = 34064; Renilla reference signal, replicate 1 = 3552; Renilla reference signal, replicate 2 = 1424; inactive.
spn-F [DRSC14475] scored firefly Hh reporter signal, replicate 1 = 38049; firefly Hh reporter signal, replicate 2 = 47080; Renilla reference signal, replicate 1 = 1066; Renilla reference signal, replicate 2 = 1681; inactive.
After knock-down of GATAe [DRSC14223], the record shows firefly Hh reporter signal, replicate 1 = 1.23e5; firefly Hh reporter signal, replicate 2 = 65464; Renilla reference signal, replicate 1 = 5462; Renilla reference signal, replicate 2 = 3217; inactive.
With knock-down of Paip1 [DRSC07302], the screen gave firefly Hh reporter signal, replicate 1 = 1.01e5; firefly Hh reporter signal, replicate 2 = 40518; Renilla reference signal, replicate 1 = 4330; Renilla reference signal, replicate 2 = 1677; inactive.
With knock-down of Vm32E [DRSC03474], the screen gave firefly Hh reporter signal, replicate 1 = 1.03e5; firefly Hh reporter signal, replicate 2 = 61250; Renilla reference signal, replicate 1 = 2684; Renilla reference signal, replicate 2 = 5074; inactive.
Knock-down of Cap-H2 [DRSC14908] came out at: firefly Hh reporter signal, replicate 1 = 85426; firefly Hh reporter signal, replicate 2 = 79699; Renilla reference signal, replicate 1 = 3996; Renilla reference signal, replicate 2 = 3328; inactive.
Silencing of ImpE3 [DRSC16716] resulted in: firefly Hh reporter signal, replicate 1 = 80592; firefly Hh reporter signal, replicate 2 = 1.02e5; Renilla reference signal, replicate 1 = 2938; Renilla reference signal, replicate 2 = 2678; inactive.
CG13081 [DRSC02185] scored firefly Hh reporter signal, replicate 1 = 70416; firefly Hh reporter signal, replicate 2 = 44636; Renilla reference signal, replicate 1 = 1820; Renilla reference signal, replicate 2 = 3929; inactive.
After knock-down of Lip3 [DRSC16727] the results were firefly Hh reporter signal, replicate 1 = 1.58e5; firefly Hh reporter signal, replicate 2 = 1.22e5; Renilla reference signal, replicate 1 = 4659; Renilla reference signal, replicate 2 = 3200; inactive.

Reformatted: 2 of the entries above
{"Target gene":"Ir60a","amplicon":"DRSC04212","firefly Hh reporter signal, replicate 1":76720,"firefly Hh reporter signal, replicate 2":56816,"Renilla reference signal, replicate 1":1882,"Renilla reference signal, replicate 2":5047,"call":"inactive"}
{"Target gene":"CG42382","amplicon":"DRSC07671","firefly Hh reporter signal, replicate 1":97429,"firefly Hh reporter signal, replicate 2":53984,"Renilla reference signal, replicate 1":2144,"Renilla reference signal, replicate 2":4608,"call":"inactive"}
